Our source for the binding values is paper doi:10.1101/411173.

Assay [1] concerns the target T1, His14-Sec61S353C (S. cerevisiae) (UniProt P32915).
T1 sequence: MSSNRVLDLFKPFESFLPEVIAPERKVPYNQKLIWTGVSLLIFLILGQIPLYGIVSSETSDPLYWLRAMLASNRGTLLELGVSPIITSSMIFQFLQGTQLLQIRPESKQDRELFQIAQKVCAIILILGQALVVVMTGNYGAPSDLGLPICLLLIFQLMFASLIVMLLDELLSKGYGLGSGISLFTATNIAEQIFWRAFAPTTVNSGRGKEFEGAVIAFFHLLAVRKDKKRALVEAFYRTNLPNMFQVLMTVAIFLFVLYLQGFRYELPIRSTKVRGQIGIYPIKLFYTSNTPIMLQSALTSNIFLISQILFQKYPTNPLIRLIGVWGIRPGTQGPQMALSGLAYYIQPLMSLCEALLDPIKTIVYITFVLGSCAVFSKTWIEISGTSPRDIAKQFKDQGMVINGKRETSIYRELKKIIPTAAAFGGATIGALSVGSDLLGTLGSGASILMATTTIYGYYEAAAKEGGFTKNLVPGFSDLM
The assay is described as follows: cross-linking.

In assay [2] the target is T2, Sec61S353C (S. cerevisiae) (UniProt P32915).
T2 sequence: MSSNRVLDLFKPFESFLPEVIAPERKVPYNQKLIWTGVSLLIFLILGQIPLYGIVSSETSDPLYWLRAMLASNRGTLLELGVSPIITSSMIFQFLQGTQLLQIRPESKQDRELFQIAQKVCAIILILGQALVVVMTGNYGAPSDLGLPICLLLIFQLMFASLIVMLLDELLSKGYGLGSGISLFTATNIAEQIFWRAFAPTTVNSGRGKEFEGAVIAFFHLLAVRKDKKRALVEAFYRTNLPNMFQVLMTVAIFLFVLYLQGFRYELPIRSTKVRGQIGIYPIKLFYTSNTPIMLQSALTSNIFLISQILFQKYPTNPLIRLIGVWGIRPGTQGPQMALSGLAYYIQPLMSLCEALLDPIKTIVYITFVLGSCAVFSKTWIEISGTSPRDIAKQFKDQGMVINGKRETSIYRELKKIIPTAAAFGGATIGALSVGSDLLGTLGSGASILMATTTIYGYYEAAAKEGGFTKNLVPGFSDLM
As to the kind of experiment: cross-linking.

Assay [3] addresses T3, Sec61 (wildtype) (S. cerevisiae) (UniProt P32915).
T3 sequence: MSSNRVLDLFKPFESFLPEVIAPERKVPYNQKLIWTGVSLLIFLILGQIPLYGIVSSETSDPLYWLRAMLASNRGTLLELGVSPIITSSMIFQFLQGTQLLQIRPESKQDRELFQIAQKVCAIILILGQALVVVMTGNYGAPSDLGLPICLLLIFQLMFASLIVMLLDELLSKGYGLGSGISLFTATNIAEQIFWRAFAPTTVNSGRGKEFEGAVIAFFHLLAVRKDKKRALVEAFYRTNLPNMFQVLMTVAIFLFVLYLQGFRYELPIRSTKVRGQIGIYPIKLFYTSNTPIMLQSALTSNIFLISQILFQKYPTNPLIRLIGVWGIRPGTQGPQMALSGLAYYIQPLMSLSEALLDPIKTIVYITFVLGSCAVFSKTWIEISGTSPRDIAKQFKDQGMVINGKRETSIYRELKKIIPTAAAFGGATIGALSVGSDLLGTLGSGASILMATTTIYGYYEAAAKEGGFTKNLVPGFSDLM
As to the kind of experiment: cross-linking + co-IP.

The target in assay [4] is T2, Sec61S353C (S. cerevisiae). The assay is described as follows: cross-linking + co-IP.
For assay [5], the target named is T3, Sec61 (wildtype) (S. cerevisiae). The assay is described as follows: cross-linking.

Results are given in words; binding and its absence hold for the method and conditions named. Binding seen in cells or lysates may run through a third protein. Some entries that bind do so weakly or less than the wild type. For some of these results: Sequences can lack the tags named with a protein.

B1: Sec63 (protein, UniProt P14906 1-663)
chain: MPTNYEYDEASETWPSFILTGLLMVVGPMTLLQIYQIFFGANAEDGNSGKSKEFNEEVFKNLNEEYTSDEIKQFRRKFDKNSNKKSKIWSRRNIIIIVGWILVAILLQRINSNDAIKDAATKLFDPYEILGISTSASDRDIKSAYRKLSVKFHPDKLAKGLTPDEKSVMEETYVQITKAYESLTDELVRQNYLKYGHPDGPQSTSHGIALPRFLVDGSASPLLVVCYVALLGLILPYFVSRWWARTQSYTKKGIHNVTASNFVSNLVNYKPSEIVTTDLILHWLSFAHEFKQFFPDLQPTDFEKLLQDHINRRDSGKLNNAKFRIVAKCHSLLHGLLDIACGFRNLDIALGAINTFKCIVQAVPLTPNCQILQLPNVDKEHFITKTGDIHTLGKLFTLEDAKIGEVLGIKDQAKLNETLRVASHIPNLKIIKADFLVPGENQVTPSSTPYISLKVLVRSAKQPLIPTSLIPEENLTEPQDFESQRDPFAMMSKQPLVPYSFAPFFPTKRRGSWCCLVSSQKDGKILQTPIIIEKLSYKNLNDDKDFFDKRIKMDLTKHEKFDINDWEIGTIKIPLGQPAPETVGDFFFRVIVKSTDYFTTDLDITMNMKVRDSPAVEQVEVYSEEDDEYSTDDDETESDDESDASDYTDIDTDTEAEDDESPE
For the molecule B1, the binding entry in assay [1] and in assay [2] was “binds” in each case.

B2: Mpd1-HA (protein, UniProt Q12404 22-318)
chain: QNFYDSDPHISELTPKSFDKAIHNTNYTSLVEFYAPWCGHCKKLSSTFRKAAKRLDGVVQVAAVNCDLNKNKALCAKYDVNGFPTLMVFRPPKIDLSKPIDNAKKSFSAHANEVYSGARTLAPIVDFSLSRIRSYVKKFVRIDTLGSLLRKSPKLSVVLFSKQDKISPVYKSIALDWLGKFDFYSISNKKLKQLTDMNPTYEKTPEIFKYLQKVIPEQRQSDKSKLVVFDADKDKFWEYEGNSINKNDISKFLRDTFSITPNEGPFSRRSEYIAYLKTGKKPIKKNHSSSGNKHDEL
For B2, the binding entry in assay [3] and in assay [4] was “binds” throughout.

B3: Sss1 (protein, UniProt P35179 1-80)
chain: MARASEKGEEKKQSNNQVEKLVEAPVEFVREGTQFLAKCKKPDLKEYTKIVKAVGIGFIAVGIIGYAIKLIHIPIRYVIV
Turning to B3, the binding result in assay [5], in assay [1] and in assay [2] was “binds” each time.
